According to PMC11238352, “Combination of dual JAK/HDAC inhibitor with regorafenib synergistically reduces tumor growth, metastasis, and regorafenib-induced toxicity in colorectal cancer” (Journal of Experimental & Clinical Cancer Research : CR, 2024):

Tested on: SW480 cells
Assay: Whole transcriptomic sequencing (RNA-seq)
Type: cell-based
Settings: SW480, 500 nM, 12 h, volcano plots

CNC(=O)c1cc(Oc2ccc(NC(=O)Nc3ccc(Cl)c(C(F)(F)F)c3)c(F)c2)ccn1 [regorafenib]
Upregulated protein-coding genes vs. DMSO: 53
downregulated protein-coding genes vs. DMSO: 24
